Experimental findings from publication PMC6514072 are described below.

Protein sequences, listed by entry. Tags and fused reporters are not part of them. Residues count along the entry.
UniProt Q9UKE5: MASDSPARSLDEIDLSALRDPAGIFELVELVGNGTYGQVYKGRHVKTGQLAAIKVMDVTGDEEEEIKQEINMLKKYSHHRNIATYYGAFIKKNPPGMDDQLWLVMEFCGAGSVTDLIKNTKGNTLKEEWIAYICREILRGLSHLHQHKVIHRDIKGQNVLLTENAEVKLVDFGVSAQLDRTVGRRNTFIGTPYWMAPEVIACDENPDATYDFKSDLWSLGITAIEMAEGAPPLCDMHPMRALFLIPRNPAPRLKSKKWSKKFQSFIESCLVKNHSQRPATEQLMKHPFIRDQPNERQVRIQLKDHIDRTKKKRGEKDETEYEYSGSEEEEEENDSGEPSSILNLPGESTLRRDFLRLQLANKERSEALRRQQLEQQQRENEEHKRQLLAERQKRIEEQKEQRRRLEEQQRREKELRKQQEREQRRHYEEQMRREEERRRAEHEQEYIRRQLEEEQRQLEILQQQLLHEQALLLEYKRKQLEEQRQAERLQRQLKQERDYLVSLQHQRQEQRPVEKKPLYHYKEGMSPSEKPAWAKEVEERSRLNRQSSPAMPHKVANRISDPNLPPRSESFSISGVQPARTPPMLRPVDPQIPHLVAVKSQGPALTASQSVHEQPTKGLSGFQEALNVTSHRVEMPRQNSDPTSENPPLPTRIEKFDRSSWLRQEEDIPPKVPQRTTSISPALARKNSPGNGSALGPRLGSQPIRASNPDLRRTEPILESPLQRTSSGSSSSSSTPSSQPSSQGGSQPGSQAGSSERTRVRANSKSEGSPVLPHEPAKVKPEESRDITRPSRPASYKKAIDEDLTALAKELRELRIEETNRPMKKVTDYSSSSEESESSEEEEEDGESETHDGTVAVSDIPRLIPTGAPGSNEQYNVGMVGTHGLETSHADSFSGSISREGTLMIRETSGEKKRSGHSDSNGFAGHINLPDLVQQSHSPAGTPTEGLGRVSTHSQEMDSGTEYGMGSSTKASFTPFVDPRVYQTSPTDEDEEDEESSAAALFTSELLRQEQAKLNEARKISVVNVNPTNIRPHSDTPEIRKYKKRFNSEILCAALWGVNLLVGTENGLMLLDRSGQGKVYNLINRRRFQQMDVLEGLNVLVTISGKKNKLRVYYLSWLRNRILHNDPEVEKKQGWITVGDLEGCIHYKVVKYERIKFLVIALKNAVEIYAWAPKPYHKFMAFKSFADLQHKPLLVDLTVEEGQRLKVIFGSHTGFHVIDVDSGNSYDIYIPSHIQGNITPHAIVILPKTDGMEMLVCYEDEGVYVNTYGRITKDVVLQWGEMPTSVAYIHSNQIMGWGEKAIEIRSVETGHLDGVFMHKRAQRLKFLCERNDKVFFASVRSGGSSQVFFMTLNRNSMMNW
UniProt Q96CX2: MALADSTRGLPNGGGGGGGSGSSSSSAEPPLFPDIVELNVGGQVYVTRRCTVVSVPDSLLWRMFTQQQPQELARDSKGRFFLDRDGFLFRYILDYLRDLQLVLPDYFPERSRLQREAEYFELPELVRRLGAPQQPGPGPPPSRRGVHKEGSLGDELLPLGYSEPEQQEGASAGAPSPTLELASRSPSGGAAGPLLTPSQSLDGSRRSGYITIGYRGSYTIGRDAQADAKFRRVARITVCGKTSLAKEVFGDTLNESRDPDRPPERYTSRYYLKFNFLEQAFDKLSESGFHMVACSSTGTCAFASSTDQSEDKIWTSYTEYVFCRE
UniProt Q92928: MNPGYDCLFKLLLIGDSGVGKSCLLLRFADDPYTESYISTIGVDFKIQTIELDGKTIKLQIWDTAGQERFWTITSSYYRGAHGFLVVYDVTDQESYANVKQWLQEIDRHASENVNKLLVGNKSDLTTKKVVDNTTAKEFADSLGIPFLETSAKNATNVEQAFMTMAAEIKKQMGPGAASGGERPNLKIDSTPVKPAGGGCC
UniProt Q15438: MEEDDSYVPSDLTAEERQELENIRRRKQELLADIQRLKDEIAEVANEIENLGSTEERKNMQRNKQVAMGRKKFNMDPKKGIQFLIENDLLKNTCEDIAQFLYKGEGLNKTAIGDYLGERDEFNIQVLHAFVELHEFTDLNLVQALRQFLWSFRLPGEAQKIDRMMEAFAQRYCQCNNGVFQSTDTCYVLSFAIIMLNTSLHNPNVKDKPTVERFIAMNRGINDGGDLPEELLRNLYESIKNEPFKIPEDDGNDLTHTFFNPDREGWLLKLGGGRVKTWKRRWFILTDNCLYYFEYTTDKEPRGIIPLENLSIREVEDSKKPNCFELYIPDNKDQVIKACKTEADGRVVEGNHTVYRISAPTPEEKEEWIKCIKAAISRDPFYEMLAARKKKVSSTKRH
UniProt Q12913, residues 36-1337: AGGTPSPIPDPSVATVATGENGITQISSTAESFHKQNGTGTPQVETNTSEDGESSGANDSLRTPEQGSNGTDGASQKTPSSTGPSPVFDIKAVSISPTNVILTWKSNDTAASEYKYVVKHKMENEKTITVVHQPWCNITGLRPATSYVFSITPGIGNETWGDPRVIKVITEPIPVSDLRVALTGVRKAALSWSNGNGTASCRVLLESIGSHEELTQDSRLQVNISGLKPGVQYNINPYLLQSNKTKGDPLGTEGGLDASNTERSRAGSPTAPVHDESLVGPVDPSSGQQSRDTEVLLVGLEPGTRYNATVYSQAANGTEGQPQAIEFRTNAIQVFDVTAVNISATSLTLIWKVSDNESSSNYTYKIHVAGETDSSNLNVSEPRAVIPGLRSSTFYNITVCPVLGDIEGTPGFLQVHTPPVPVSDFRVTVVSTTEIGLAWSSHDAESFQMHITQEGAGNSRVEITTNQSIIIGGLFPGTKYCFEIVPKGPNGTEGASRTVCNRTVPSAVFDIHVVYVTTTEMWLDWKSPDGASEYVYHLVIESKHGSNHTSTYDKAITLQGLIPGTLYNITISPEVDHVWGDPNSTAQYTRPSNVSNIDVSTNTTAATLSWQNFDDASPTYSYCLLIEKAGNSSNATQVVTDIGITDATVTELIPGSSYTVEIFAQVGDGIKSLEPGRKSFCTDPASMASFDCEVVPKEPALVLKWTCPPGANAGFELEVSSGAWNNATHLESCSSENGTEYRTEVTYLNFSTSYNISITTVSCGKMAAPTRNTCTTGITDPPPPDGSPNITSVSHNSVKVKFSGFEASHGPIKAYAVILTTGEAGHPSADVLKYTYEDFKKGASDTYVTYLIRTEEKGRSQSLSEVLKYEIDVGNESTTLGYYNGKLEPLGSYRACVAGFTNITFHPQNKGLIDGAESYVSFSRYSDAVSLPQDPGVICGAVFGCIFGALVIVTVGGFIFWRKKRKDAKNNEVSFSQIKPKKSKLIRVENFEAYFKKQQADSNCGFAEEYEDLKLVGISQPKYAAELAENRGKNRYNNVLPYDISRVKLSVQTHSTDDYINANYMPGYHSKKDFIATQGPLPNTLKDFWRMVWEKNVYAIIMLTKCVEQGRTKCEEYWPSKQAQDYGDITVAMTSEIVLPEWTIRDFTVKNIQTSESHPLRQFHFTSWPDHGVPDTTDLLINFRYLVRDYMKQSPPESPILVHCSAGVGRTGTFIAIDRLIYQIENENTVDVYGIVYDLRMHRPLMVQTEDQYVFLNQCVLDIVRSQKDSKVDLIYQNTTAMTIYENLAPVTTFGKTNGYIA
UniProt P01033, residues 24-207: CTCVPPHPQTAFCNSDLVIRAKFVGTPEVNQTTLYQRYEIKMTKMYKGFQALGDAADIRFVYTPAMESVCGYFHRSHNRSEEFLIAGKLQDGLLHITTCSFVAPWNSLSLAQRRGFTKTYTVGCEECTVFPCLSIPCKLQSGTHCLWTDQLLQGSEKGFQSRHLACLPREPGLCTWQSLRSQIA
UniProt Q12802: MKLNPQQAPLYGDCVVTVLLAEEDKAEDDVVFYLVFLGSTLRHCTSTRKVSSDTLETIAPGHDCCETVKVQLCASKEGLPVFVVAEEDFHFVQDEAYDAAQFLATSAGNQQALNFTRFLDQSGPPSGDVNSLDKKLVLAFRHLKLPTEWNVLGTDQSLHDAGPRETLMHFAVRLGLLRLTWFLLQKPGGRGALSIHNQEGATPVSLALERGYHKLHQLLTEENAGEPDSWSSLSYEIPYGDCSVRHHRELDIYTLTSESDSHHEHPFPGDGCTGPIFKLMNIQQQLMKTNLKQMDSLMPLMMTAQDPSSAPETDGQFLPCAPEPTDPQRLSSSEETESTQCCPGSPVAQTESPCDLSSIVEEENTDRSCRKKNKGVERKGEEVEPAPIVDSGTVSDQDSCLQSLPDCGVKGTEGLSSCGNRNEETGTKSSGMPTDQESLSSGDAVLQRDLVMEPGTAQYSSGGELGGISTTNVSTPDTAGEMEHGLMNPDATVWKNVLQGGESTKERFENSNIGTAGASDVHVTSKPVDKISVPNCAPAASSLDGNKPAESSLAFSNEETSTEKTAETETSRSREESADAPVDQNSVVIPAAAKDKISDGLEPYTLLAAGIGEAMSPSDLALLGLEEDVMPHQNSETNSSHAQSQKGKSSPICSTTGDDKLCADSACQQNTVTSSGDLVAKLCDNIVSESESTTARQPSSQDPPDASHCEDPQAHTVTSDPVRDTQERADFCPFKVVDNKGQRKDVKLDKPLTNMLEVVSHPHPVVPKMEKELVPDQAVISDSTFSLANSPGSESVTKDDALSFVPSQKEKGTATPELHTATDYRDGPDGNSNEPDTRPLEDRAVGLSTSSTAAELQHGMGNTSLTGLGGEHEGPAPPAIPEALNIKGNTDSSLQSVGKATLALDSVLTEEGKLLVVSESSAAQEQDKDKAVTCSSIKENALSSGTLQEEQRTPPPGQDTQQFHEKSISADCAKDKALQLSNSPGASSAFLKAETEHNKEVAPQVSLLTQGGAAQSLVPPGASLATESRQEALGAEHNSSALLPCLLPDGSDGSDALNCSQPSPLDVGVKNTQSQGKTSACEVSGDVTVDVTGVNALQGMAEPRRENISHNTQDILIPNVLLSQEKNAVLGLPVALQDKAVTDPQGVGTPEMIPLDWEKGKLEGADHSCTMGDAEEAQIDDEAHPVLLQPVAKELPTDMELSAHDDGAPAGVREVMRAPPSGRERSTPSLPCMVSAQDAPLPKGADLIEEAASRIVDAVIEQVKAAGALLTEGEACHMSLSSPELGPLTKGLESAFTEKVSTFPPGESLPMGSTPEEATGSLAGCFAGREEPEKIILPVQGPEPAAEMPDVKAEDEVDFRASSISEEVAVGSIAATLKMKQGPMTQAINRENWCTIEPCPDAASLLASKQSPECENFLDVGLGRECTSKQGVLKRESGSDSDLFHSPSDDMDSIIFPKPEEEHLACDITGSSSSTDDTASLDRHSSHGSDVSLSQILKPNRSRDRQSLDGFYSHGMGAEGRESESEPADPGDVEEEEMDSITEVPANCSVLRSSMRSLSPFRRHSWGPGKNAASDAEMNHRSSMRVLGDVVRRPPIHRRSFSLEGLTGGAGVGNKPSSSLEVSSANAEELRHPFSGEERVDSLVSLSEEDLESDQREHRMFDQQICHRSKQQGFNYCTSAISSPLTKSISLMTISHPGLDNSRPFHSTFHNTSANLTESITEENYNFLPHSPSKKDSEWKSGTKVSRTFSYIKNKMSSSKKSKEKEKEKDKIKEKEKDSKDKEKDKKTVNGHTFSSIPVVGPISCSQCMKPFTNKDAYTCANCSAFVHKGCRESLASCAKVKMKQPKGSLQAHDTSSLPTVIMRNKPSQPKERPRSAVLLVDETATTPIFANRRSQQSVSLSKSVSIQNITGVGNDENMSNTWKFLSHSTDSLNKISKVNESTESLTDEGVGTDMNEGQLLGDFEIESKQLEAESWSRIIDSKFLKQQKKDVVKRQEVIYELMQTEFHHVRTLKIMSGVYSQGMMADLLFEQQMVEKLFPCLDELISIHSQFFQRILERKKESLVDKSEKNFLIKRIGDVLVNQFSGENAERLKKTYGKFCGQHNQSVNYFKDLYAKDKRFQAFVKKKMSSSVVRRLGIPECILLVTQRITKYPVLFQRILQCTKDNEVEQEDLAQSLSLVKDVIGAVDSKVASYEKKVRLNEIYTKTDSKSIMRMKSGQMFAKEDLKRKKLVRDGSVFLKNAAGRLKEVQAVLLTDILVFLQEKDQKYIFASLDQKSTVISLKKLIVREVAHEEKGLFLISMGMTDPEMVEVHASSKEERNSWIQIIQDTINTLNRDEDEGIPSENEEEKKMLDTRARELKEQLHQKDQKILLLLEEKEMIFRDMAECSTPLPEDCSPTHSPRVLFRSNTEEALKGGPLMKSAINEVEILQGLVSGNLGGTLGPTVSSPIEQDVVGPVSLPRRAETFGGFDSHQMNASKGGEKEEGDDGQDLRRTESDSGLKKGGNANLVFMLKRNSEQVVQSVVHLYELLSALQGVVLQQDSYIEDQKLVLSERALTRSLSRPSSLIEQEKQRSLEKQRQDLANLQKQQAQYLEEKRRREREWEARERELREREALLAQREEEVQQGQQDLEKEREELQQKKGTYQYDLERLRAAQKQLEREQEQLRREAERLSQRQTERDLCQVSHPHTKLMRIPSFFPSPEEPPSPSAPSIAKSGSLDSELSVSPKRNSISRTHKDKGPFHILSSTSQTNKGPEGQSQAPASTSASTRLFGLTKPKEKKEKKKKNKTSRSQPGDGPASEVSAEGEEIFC

B1: Nitric oxide synthase-interacting protein (protein, UniProt Q9Y314 1-301)
chain: MTRHGKNCTAGAVYTYHEKKKDTAASGYGTQNIRLSRDAVKDFDCCCLSLQPCHDPVVTPDGYLYEREAILEYILHQKKEIARQMKAYEKQRGTRREEQKELQRAASQDHVRGFLEKESAIVSRPLNPFTAKALSGTSPDDVQPGPSVGPPSKDKDKVLPSFWIPSLTPEAKATKLEKPSRTVTCPMSGKPLRMSDLTPVHFTPLDSSVDRVGLITRSERYVCAVTRDSLSNATPCAVLRPSGAVVTLECVEKLIRKDMVDPVTGDKLTDRDIIVLQRGGTGFAGSGVKLQAEKSRPVMQA
B2: Tissue factor pathway inhibitor 2 (protein, UniProt P48307 23-235)
chain: DAAQEPTGNNAEICLLPLDYGPCRALLLRYYYDRYTQSCRQFLYGGCEGNANNFYTWEACDDACWRIEKVPKVCRLQVSVDDQCEGSTEKYFFNLSSMTCEKFFSGGCHRNRIENRFPDEATCMGFCAPKKIPSFCYSPKDEGLCSANVTRYYFNPRYRTCDAFTYTGCGGNDNNFVSREDCKRACAKALKKKKKMPKLRFASRIRKIRKKQF
B3: Guanylyl cyclase-activating protein 2 (protein, UniProt Q9UMX6 1-200)
chain: MGQEFSWEEAEAAGEIDVAELQEWYKKFVMECPSGTLFMHEFKRFFKVTDDEEASQYVEGMFRAFDKNGDNTIDFLEYVAALNLVLRGTLEHKLKWTFKIYDKDGNGCIDRLELLNIVEGIYQLKKACRRELQTEQGQLLTPEEVVDRIFLLVDENGDGQLSLNEFVEGARRDKWVMKMLQMDMNPSSWLAQQRRKSAMF
B4: Protein phosphatase 1F (protein, UniProt P49593 1-454)
chain: MSSGAPQKSSPMASGAEETPGFLDTLLQDFPALLNPEDPLPWKAPGTVLSQEEVEGELAELAMGFLGSRKAPPPLAAALAHEAVSQLLQTDLSEFRKLPREEEEEEEDDDEEEKAPVTLLDAQSLAQSFFNRLWEVAGQWQKQVPLAARASQRQWLVSIHAIRNTRRKMEDRHVSLPSFNQLFGLSDPVNRAYFAVFDGHGGVDAARYAAVHVHTNAARQPELPTDPEGALREAFRRTDQMFLRKAKRERLQSGTTGVCALIAGATLHVAWLGDSQVILVQQGQVVKLMEPHRPERQDEKARIEALGGFVSHMDCWRVNGTLAVSRAIGDVFQKPYVSGEADAASRALTGSEDYLLLACDGFFDVVPHQEVVGLVQSHLTRQQGSGLRVAEELVAAARERGSHDNITVMVVFLRDPQELLEGGNQGEGDPQAEGRRQDLPSSLPEPETQAPPRS
B5: Tyrosine-protein kinase Mer (protein, UniProt Q12866 21-999)
chain: AITEAREEAKPYPLFPGPFPGSLQTDHTPLLSLPHASGYQPALMFSPTQPGRPHTGNVAIPQVTSVESKPLPPLAFKHTVGHIILSEHKGVKFNCSISVPNIYQDTTISWWKDGKELLGAHHAITQFYPDDEVTAIIASFSITSVQRSDNGSYICKMKINNEEIVSDPIYIEVQGLPHFTKQPESMNVTRNTAFNLTCQAVGPPEPVNIFWVQNSSRVNEQPEKSPSVLTVPGLTEMAVFSCEAHNDKGLTVSKGVQINIKAIPSPPTEVSIRNSTAHSILISWVPGFDGYSPFRNCSIQVKEADPLSNGSVMIFNTSALPHLYQIKQLQALANYSIGVSCMNEIGWSAVSPWILASTTEGAPSVAPLNVTVFLNESSDNVDIRWMKPPTKQQDGELVGYRISHVWQSAGISKELLEEVGQNGSRARISVQVHNATCTVRIAAVTRGGVGPFSDPVKIFIPAHGWVDYAPSSTPAPGNADPVLIIFGCFCGFILIGLILYISLAIRKRVQETKFGNAFTEEDSELVVNYIAKKSFCRRAIELTLHSLGVSEELQNKLEDVVIDRNLLILGKILGEGEFGSVMEGNLKQEDGTSLKVAVKTMKLDNSSQREIEEFLSEAACMKDFSHPNVIRLLGVCIEMSSQGIPKPMVILPFMKYGDLHTYLLYSRLETGPKHIPLQTLLKFMVDIALGMEYLSNRNFLHRDLAARNCMLRDDMTVCVADFGLSKKIYSGDYYRQGRIAKMPVKWIAIESLADRVYTSKSDVWAFGVTMWEIATRGMTPYPGVQNHEMYDYLLHGHRLKQPEDCLDELYEIMYSCWRTDPLDRPTFSVLRLQLEKLLESLPDVRNQADVIYVNTQLLESSEGLAQGSTLAPLDLNIDPDSIIASCTPRAAISVVTAEVHDSKPHEGRYILNGGSEEWEDLTSAPSAAVTAEKNSVLPGERLVRNGVSWSHSSMLPLGSSLPDELLFADDSSEGSEVLM
B6: CD81 antigen (protein, UniProt P60033 1-236)
chain: MGVEGCTKCIKYLLFVFNFVFWLAGGVILGVALWLRHDPQTTNLLYLELGDKPAPNTFYVGIYILIAVGAVMMFVGFLGCYGAIQESQCLLGTFFTCLVILFACEVAAGIWGFVNKDQIAKDVKQFYDQALQQAVVDDDANNAKAVVKTFHETLDCCGSSTLTALTTSVLKNNLCPSGSNIISNLFKEDCHQKIDDLFSGKLYLIGIAAIVVAVIMIFEMILSMVLCCGIRNSSVY

No constants are given. Whether binding was seen depends on the method and setting. Binding seen in cells or lysates may run through a third protein. Here binding means that the protein was enriched with, or labelled near, the bait; the list need not be complete.

The first experiment addresses NEU1 sialidase (endogenous, plasma membrane of macrophages) (human (endogenous in THP-1)) (UniProt Q99519). Put plainly: affinity purification with mass spectrometry; 4.8 x 10^8 macrophages differentiated from THP-1 cells; surface biotinylation (sulfo-NHS-LC-biotin), lysis in HEPES buffer pH 7.5 with 1% Triton X-100, monomeric avidin agarose, elution with 10 mM biotin, then immunoprecipitation with rabbit polyclonal anti-NEU1 on protein G Sepharose (overnight, 4 °C); SDS-PAGE, 23 bands, LC-MS/MS; rabbit IgG control; two independent purifications.
Turning to B1, the binding entry was “binds”.

B2: the binding result was “binds”.

As for B3, the binding entry is reported as “binds”.

On to B4, for which the binding result was “binds”.

Regarding B5, the binding entry is “binds”.

For B6, the binding entry is reported as “binds”.

A further experiment shares this target. The description is as above. This is another data set of the same source.
With “Tubulin beta-4A chain (from UniProt P04350 1-444)”, the binding entry is on record as “binds”.

Turning to “LIM domain-containing protein 1 (from UniProt Q9UGP4 1-676)”, the binding entry is reported as “binds”.

As to “Platelet glycoprotein 4 (CD36), endogenous in macrophages (from UniProt P16671 1-472) (receptor)”, the binding entry is “binds”.

In the case of “TRAF2 and NCK-interacting protein kinase (from UniProt Q9UKE5 1-1360)”, the binding result is listed as “binds”.

Turning to “Receptor-type tyrosine-protein phosphatase beta (from UniProt P23467 23-1997)”, the binding result is given as “binds”.

Take “BTB/POZ domain-containing protein KCTD12 (from UniProt Q96CX2 1-325)”: the binding entry is “binds”.

As to “toll-like receptor 2 (from UniProt O60603 21-784)”, the binding result is recorded as “binds”.

For the molecule “Tubulin alpha-3E chain (from UniProt Q6PEY2 1-450)”, the binding result is “binds”.

As to “Putative Ras-related protein Rab-1C (from UniProt Q92928 1-201)”, the binding entry is “binds”.

For “CD63 antigen (from UniProt P08962 1-238)”, the binding result is reported as “binds”.

Cytohesin-1 (from UniProt Q15438 1-398): the binding result was “binds”.

In the case of “integrin beta-2 (from UniProt P05107 23-769)”, the binding result is given as “binds”.

For “Actin-related protein 2/3 complex subunit 1B (from UniProt O15143 1-372)”, the binding result is reported as “binds”.

Take “Myosin regulatory light chain 12B (from UniProt O14950 1-172)”: the binding result is “binds”.

Regarding “Fermitin family homolog 3 (from UniProt Q86UX7 1-667)”, the binding result was “binds”.

In the case of “14–3–3 protein sigma (from UniProt P31947 1-248)”, the binding entry is “binds”.

In the case of “Tubulin beta-2B chain (from UniProt Q9BVA1 1-445)”, the binding entry was “binds”.

“A-kinase anchor protein 9 (from UniProt Q99996 1-3907)”: the binding result is “binds”.

For the molecule “Receptor-type tyrosine-protein phosphatase eta (from UniProt Q12913 36-1337)”, the binding result is “binds”.

Regarding Profilin-1 (from UniProt P07737 1-140), the binding entry was “binds”.

With “C5a anaphylatoxin chemotactic receptor 1 (from UniProt P21730 1-350)”, the binding entry is recorded as “binds”.

As for “Ras-related protein Rab-1B (from UniProt Q9H0U4 1-201)”, the binding entry is “binds”.

Take “G-protein-coupled receptor 98 (from UniProt Q8WXG9 30-6306)”: the binding entry is listed as “binds”.

Consider “Serine/threonine-protein kinase 25 (from UniProt O00506 1-426)”, for which the binding entry is reported as “binds”.

As to “matrix metalloproteinase-9 (from UniProt P14780)”, the binding result is “binds”.

Regarding “B-cell receptor CD22 (from UniProt P20273 20-847)”, the binding entry is given as “binds”.

Take “Metalloproteinase inhibitor 1 (from UniProt P01033 24-207)”: the binding result is “binds”.

Regarding Copine-3 (from UniProt O75131 1-537), the binding result was “binds”.

In the case of “Serine/threonine-protein kinase 26 (from UniProt Q9P289 1-416)”, the binding result is “binds”.

For “5′-AMP-activated protein kinase subunit gamma-2 (from UniProt Q9UGJ0 1-569)”, the binding result is listed as “binds”.

“Beta-actin-like protein 2 (from UniProt Q562R1 1-376)”: the binding entry is on record as “binds”.

As for “Mitogen-activated protein kinase 14 (from UniProt Q16539 1-360)”, the binding entry is “binds”.

Consider “Ephrin type-B receptor 3 (from UniProt P54753 34-998)”, for which the binding result was “binds”.

As for “A-kinase anchor protein 13 (from UniProt Q12802 1-2813)”, the binding result was “binds”.
